From patent US20180127681A1, “GLYCOSYLATED AROMA- AND FRAGRANCE PRECURSORS AND FRAGRANCE PRODUCTS THAT CAN BE ACTIVATED” (Technische University Muenchen, priority 2015, published 2018)

Test: Orthonasal sensory triangle test, bread with and without geranyl glucoside
Conditions: 18 panelists, standard yeast dough bread, 100 ppm
Procedure: In order to test the influence of the amount of geraniol released in the baking test on the total aroma of the breads and its impression on the consumer an orthonasalic sensory test was carried out. In a triangle test with untrained panelists breads based on standard yeast dough with and without addition of GG were tested for a perceivable difference.
Bread made of standard yeast dough was tested analogous to the amount of 100 ppm geraniol (corresponds to 1 mg/10 g) used until now in raw bread dough and its difference to a blind sample. As sample dough blanks of 50 g flour each based on standard yeast dough (baking test 3—standard yeast dough) were used (see FIG. 8, picture A4) A blind sample A (flour, salt, sugar, fat, yeast, L-ascorbic acid and water) and a positive control B (additionally geranyl glucoside) were used. Several process steps were carried out according to standardized specifications, separate for each of the two blanks.
For the blind sample A 94.9 g well-mixed flour were weighed into a glass vessel. 1.0 g NaCl, 0.5 g sucrose and 0.5 g palm fat were added and the mixture was put in the kneader. […]
Each panelist carried out two tests following each other, first for the sensory test of the crust, then for the crumb. […] Following the test all singular results were brought together and evaluated statistically. […]

CC(C)=CCC/C(C)=C/CO[C@@H]1O[C@H](CO)[C@@H](O)[C@H](O)[C@H]1O [geranyl glucoside]
correct answers in triangle test (crumb): 12 | correct answers in triangle test (crust): 13
